Measurements: the supplement of paper PMC6411743
± gives the standard deviation of the averaged measurements. Only a part is listed here, and it is no random draw.

Amino acid sequences for entries named in this document (tags omitted). A change or cut given only in a name is not applied to a line headed by its entry.
UniProt P47897: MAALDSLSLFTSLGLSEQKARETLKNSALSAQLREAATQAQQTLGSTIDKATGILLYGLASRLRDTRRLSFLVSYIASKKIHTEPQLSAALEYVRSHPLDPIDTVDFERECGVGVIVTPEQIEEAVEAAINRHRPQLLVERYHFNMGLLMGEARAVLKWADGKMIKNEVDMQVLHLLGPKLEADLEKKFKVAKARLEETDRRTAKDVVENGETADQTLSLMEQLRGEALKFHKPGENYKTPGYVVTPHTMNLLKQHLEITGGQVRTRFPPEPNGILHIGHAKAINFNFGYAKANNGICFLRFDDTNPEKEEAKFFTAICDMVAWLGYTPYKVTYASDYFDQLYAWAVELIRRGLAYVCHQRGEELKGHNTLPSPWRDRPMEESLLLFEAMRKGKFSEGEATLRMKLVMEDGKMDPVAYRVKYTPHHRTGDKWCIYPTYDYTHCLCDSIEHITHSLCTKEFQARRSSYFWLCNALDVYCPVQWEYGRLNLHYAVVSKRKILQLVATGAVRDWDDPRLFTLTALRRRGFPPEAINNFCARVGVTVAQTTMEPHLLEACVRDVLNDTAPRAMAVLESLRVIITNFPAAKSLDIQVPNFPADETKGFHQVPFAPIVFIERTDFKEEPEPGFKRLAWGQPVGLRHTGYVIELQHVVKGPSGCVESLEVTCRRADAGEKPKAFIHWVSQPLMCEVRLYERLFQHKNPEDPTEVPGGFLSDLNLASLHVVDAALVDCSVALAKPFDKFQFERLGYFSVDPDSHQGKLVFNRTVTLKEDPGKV
UniProt P41214: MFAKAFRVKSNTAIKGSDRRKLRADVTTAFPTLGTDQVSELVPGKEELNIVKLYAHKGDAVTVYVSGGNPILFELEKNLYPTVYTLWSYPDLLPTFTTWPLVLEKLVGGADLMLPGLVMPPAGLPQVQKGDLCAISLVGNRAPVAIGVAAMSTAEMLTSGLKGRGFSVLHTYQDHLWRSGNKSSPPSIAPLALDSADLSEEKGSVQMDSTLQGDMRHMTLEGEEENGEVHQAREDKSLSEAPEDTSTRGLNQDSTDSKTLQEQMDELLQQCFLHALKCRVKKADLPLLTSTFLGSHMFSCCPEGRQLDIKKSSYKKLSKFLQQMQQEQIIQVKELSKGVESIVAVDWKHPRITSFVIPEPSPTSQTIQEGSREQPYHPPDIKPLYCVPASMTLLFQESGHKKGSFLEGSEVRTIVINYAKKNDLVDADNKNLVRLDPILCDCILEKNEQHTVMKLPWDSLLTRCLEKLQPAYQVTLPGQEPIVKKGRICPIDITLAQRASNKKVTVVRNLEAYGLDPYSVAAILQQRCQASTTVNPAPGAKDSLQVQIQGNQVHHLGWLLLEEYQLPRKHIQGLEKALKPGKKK
UniProt P42025, whole entry: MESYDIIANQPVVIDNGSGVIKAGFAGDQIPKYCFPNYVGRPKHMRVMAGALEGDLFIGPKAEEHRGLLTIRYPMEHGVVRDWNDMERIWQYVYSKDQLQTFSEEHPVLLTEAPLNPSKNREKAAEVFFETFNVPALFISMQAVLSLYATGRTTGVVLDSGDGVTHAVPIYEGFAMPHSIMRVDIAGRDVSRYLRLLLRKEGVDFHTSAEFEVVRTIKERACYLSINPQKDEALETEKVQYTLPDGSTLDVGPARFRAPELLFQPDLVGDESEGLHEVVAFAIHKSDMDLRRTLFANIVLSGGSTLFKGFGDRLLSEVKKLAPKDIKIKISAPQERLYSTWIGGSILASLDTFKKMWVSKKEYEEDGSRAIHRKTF
UniProt P43155: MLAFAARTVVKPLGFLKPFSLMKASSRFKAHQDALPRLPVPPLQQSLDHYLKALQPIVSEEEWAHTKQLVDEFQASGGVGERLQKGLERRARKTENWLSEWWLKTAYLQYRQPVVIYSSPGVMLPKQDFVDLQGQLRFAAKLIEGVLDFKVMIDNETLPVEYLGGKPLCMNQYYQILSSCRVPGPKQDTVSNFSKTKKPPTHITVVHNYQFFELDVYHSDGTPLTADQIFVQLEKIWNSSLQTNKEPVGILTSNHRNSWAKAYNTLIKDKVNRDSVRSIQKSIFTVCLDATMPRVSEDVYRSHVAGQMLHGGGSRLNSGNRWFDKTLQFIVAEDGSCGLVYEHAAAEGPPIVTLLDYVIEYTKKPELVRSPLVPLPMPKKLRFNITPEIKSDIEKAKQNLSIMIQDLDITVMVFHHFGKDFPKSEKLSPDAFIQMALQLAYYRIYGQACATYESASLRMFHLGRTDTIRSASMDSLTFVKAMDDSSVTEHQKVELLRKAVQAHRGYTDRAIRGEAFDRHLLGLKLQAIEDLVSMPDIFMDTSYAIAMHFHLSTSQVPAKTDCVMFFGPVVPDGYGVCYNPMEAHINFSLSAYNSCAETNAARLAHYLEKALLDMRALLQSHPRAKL
UniProt P41212: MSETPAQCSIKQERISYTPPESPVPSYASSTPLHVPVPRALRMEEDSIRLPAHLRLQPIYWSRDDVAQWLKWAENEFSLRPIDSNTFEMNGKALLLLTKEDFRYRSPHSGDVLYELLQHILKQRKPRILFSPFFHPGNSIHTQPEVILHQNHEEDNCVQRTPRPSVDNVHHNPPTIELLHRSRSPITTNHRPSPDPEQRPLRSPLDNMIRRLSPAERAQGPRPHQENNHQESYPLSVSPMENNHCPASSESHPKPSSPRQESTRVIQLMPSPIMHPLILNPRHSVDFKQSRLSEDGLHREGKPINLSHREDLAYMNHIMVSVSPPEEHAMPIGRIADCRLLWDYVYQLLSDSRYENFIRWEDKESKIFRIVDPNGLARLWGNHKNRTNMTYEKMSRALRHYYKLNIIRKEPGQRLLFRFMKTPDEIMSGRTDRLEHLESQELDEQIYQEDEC
UniProt P48643, whole entry: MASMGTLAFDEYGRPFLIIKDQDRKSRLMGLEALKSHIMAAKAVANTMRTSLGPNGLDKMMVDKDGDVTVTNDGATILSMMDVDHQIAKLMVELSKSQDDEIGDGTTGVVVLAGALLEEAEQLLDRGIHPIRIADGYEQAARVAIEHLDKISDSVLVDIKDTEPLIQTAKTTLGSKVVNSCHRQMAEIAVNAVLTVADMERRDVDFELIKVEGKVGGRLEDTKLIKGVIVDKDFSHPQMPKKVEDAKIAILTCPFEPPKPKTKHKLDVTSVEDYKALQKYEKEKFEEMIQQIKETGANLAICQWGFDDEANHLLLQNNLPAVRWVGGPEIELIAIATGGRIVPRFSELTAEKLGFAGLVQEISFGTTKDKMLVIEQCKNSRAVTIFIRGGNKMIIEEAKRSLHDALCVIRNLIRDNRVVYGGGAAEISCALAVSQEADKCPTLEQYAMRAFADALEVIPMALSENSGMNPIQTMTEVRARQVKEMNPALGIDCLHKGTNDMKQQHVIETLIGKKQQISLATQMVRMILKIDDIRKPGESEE
UniProt P49914: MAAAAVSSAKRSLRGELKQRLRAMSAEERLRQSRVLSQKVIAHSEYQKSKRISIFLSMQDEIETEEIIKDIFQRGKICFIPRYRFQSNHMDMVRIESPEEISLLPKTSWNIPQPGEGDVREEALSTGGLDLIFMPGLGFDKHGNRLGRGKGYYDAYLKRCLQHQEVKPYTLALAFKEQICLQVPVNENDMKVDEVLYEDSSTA
UniProt P49458: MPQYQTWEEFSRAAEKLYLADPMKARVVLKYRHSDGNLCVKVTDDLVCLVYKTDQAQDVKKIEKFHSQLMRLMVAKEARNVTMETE
UniProt P36543, whole entry: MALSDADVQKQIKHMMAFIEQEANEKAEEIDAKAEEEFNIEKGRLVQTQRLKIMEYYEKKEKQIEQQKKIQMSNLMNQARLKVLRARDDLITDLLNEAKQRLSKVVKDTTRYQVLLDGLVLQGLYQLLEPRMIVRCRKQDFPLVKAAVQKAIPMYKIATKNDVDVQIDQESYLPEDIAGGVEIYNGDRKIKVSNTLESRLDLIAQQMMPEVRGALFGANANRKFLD
UniProt P40306: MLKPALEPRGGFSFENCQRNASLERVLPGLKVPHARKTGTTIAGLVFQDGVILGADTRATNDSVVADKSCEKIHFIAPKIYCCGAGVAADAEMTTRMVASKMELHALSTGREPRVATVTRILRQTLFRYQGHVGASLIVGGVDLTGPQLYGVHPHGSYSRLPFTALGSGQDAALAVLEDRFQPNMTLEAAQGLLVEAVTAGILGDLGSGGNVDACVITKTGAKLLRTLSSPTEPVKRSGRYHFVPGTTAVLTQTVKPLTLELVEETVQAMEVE
UniProt P51991: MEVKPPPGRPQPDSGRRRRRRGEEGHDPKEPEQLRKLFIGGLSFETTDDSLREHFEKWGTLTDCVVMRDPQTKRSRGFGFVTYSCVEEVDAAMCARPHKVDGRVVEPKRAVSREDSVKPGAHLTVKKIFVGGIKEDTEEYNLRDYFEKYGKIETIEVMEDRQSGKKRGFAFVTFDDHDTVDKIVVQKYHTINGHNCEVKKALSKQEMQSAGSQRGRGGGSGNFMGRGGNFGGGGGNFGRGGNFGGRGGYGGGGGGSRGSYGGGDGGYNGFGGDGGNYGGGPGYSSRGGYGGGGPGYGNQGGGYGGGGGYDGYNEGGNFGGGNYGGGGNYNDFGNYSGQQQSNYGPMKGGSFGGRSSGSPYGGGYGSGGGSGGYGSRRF
UniProt P51957: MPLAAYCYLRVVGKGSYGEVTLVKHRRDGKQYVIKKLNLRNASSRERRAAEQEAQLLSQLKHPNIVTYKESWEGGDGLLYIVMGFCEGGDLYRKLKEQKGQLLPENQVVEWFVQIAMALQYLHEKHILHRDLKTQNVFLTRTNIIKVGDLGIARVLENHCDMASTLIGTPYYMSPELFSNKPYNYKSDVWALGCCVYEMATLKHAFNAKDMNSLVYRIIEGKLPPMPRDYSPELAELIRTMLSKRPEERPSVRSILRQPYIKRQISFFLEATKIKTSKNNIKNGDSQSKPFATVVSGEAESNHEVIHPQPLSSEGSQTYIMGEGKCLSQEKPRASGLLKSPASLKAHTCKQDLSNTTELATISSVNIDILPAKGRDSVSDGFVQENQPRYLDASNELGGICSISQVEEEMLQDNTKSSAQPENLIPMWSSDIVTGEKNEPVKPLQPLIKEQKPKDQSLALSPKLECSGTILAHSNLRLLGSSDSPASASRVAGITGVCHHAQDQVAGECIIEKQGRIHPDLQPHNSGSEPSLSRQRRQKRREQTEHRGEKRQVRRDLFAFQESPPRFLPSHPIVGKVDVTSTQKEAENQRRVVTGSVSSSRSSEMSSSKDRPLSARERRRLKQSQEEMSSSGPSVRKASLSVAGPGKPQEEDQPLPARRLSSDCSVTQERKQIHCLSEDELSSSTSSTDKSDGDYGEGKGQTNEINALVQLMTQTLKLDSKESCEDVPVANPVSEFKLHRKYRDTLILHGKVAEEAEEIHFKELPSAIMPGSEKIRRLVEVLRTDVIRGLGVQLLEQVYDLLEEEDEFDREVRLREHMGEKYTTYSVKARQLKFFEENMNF
UniProt P41236: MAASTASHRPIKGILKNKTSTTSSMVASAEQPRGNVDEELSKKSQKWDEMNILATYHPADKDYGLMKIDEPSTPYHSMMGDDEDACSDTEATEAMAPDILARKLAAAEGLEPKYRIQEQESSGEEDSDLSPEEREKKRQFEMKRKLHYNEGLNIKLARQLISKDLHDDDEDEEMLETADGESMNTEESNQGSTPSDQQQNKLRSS
UniProt P39687: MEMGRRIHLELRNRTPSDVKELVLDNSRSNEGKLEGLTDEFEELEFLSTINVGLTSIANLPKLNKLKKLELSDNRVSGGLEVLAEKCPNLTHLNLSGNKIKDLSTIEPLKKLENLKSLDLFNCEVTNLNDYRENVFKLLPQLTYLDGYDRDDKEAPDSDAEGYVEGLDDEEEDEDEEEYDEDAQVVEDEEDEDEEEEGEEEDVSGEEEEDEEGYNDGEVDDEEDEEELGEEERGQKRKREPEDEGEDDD
UniProt P42166: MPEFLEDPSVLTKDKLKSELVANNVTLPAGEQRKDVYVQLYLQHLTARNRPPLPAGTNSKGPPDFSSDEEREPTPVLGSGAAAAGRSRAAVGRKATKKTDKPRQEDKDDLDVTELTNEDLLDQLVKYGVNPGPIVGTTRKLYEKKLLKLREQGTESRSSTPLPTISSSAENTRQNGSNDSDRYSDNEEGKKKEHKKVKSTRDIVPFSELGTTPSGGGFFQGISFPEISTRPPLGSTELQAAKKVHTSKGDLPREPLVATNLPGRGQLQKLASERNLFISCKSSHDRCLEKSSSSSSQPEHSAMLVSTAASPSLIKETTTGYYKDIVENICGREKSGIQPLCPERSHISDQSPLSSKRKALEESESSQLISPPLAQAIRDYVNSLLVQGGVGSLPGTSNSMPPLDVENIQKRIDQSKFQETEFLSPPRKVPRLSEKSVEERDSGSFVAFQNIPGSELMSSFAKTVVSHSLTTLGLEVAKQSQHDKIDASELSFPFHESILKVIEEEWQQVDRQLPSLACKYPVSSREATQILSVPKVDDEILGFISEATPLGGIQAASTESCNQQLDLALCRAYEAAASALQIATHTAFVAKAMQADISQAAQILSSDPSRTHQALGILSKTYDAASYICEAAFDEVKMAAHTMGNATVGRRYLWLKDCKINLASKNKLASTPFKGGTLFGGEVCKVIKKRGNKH

Compound: Nc1ncnc2c1ncn2[C@@H]1O[C@H](COP(=O)(O)OP(=O)(O)OP(=O)(O)O)[C@@H](O)[C@H]1O [adenosine triphosphate]
Assay: NP40-soluble protein abundance relative to vehicle (solubility fold change) (ratio); higher = more soluble protein in presence of ATP
Method in brief: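 Data come from three independent experiments in which Dounce-homogenised Jurkat crude lysate was treated at eight concentrations from 0.1 to 10 mM. Treatment ran 10 min at room temperature and then 3 min at 37 °C, after which 0.8% NP40 and benzonase were added for 60 min at 4 °C before ultracentrifugation. The supernatant underwent TMT labelling and LC-MS/MS, and vsn-normalised intensities were expressed as fold change against the detergent-processed vehicle in each replicate.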

Target	NP40-soluble protein abundance (concentration: 1mM)	NP40-soluble protein abundance (concentration: 2mM)	NP40-soluble protein abundance (concentration: 4mM)	NP40-soluble protein abundance (concentration: 6mM)	NP40-soluble protein abundance (concentration: 8mM)	NP40-soluble protein abundance (concentration: 10mM)
LSS (UniProt P48449)	1.02 ± 0.098	0.998 ± 0.086	0.973 ± 0.075	0.907 ± 0.13	0.992 ± 0.049	0.986 ± 0.06
QARS (UniProt P47897)	1.03 ± 0.05	0.976 ± 0.031	0.9623 ± 0.0076	0.921 ± 0.087	1.02 ± 0.051	0.969 ± 0.081
UniProt P51531 and related entries	1.09 ± 0.072	1.07 ± 0.059	1.09 ± 0.072	1.16 ± 0.12	1.09 ± 0.089	1.13 ± 0.089
UniProt P41214	1.02 ± 0.027	1 ± 0.033	0.992 ± 0.022	1.01 ± 0.052	0.998 ± 0.02	1 ± 0.027
SERPINB8 (UniProt P50452)	0.986 ± 0.067	0.984 ± 0.064	0.944 ± 0.048	0.948 ± 0.079	0.967 ± 0.054	0.965 ± 0.076
UniProt P37275-2|P37275-5	0.947 ± 0.072	0.967 ± 0.046	0.955 ± 0.038	0.983 ± 0.046	0.939 ± 0.025	0.97 ± 0.043
ACTR1B (UniProt P42025)	1 ± 0.012	1.02 ± 0.015	1 ± 0.018	0.927 ± 0.039	1.02 ± 0.037	1.03 ± 0.04
UniProt P51795-2|P51795	1.03 ± 0.12	0.958 ± 0.03	1.05 ± 0.13	0.96 ± 0.072	0.988 ± 0.055	0.972 ± 0.051
CAPZA2 (UniProt P47755)	1.04 ± 0.011	1.03 ± 0.04	0.982 ± 0.016	1 ± 0.035	0.999 ± 0.043	0.976 ± 0.051
GSS (UniProt P48637)	1 ± 0.059	0.992 ± 0.066	0.97 ± 0.044	0.96 ± 0.086	0.975 ± 0.039	0.965 ± 0.044
UniProt P43155 and related entries	0.999 ± 0.072	0.994 ± 0.072	1.01 ± 0.076	0.94 ± 0.14	1.02 ± 0.064	0.989 ± 0.022
ETV6 (UniProt P41212)	1.26 ± 0.02	1.25 ± 0.047	1.37 ± 0.016	1.4 ± 0.014	1.51 ± 0.072	1.476 ± 0.0044
RPL4 (UniProt P36578)	0.979 ± 0.066	0.911 ± 0.13	0.88 ± 0.13	0.802 ± 0.15	0.655 ± 0.11	0.859 ± 0.12
CCT5 (UniProt P48643)	1.02 ± 0.028	0.91 ± 0.028	0.83 ± 0.018	0.857 ± 0.12	0.871 ± 0.054	0.826 ± 0.051
MTHFS (UniProt P49914)	0.992 ± 0.029	0.99 ± 0.038	0.976 ± 0.045	0.983 ± 0.071	0.959 ± 0.038	0.939 ± 0.036
CPOX (UniProt P36551)	1.01 ± 0.035	0.995 ± 0.037	1.03 ± 0.071	0.954 ± 0.092	1.01 ± 0.011	1.03 ± 0.066
RPL14 (UniProt P50914)	0.895 ± 0.061	0.865 ± 0.097	0.805 ± 0.099	0.818 ± 0.14	0.497 ± 0.16	0.835 ± 0.1
UniProt P38117 and related entries	0.957 ± 0.038	0.947 ± 0.026	0.914 ± 0.042	0.964 ± 0.012	0.919 ± 0.018	0.9182 ± 0.0047
SRP9 (UniProt P49458)	0.979 ± 0.027	0.968 ± 0.048	0.947 ± 0.031	0.995 ± 0.05	0.992 ± 0.016	0.951 ± 0.079
ATP6V1E1 (UniProt P36543)	0.961 ± 0.038	0.942 ± 0.022	0.896 ± 0.028	0.938 ± 0.045	0.909 ± 0.018	0.877 ± 0.029
PSMB10 (UniProt P40306)	0.929 ± 0.022	0.9189 ± 0.0024	0.905 ± 0.023	0.934 ± 0.021	0.912 ± 0.023	0.934 ± 0.014
UniProt P51991 and related entries	1.09 ± 0.14	1.07 ± 0.14	1.01 ± 0.12	1.18 ± 0.25	1.14 ± 0.17	1.29 ± 0.23
PIK3CB (UniProt P42338)	1.03 ± 0.17	0.972 ± 0.11	1.03 ± 0.1	0.995 ± 0.17	1.06 ± 0.19	0.984 ± 0.15
UniProt P36507	0.988 ± 0.023	0.973 ± 0.023	0.96 ± 0.027	0.958 ± 0.03	0.935 ± 0.02	0.944 ± 0.021
UniProt P46783 and related entries	0.969 ± 0.14	0.917 ± 0.1	0.888 ± 0.11	0.884 ± 0.15	0.814 ± 0.092	0.857 ± 0.074
NEK4 (UniProt P51957)	1.01 ± 0.11	1.11 ± 0.061	1.11 ± 0.12	1.1 ± 0.12	1.11 ± 0.14	1.15 ± 0.074
PPP1R2 (UniProt P41236)	0.902 ± 0.14	0.916 ± 0.13	0.887 ± 0.079	0.924 ± 0.15	0.81 ± 0.052	0.766 ± 0.1
LRPPRC (UniProt P42704)	0.929 ± 0.071	1 ± 0.11	0.922 ± 0.021	0.854 ± 0.02	0.955 ± 0.026	0.921 ± 0.055
ANP32A (UniProt P39687)	0.908 ± 0.14	0.878 ± 0.13	0.828 ± 0.06	0.91 ± 0.12	0.806 ± 0.019	0.748 ± 0.12
P42166 and related entries (UniProt H0YJH7+P42167+P42166)	1.09 ± 0.035	1.08 ± 0.021	1.05 ± 0.026	1.11 ± 0.035	1.05 ± 0.036	1.05 ± 0.017

Record cards (already shown).
MTHFS (UniProt P49914) reads NP40-soluble protein abundance (concentration: 1mM): 0.992 ± 0.029; NP40-soluble protein abundance (concentration: 2mM): 0.99 ± 0.038; NP40-soluble protein abundance (concentration: 4mM): 0.976 ± 0.045; NP40-soluble protein abundance (concentration: 6mM): 0.983 ± 0.071; NP40-soluble protein abundance (concentration: 8mM): 0.959 ± 0.038; NP40-soluble protein abundance (concentration: 10mM): 0.939 ± 0.036
P42166 and related entries (UniProt H0YJH7+P42167+P42166) reads NP40-soluble protein abundance (concentration: 1mM): 1.09 ± 0.035; NP40-soluble protein abundance (concentration: 2mM): 1.08 ± 0.021; NP40-soluble protein abundance (concentration: 4mM): 1.05 ± 0.026; NP40-soluble protein abundance (concentration: 6mM): 1.11 ± 0.035; NP40-soluble protein abundance (concentration: 8mM): 1.05 ± 0.036; NP40-soluble protein abundance (concentration: 10mM): 1.05 ± 0.017
